The source of these data is article PMC7862700.

This is one part of the list. The exact form of the protein is not confirmed.

The assay has as its target T1, ELF2 (UniProt Q15723).
T1 sequence: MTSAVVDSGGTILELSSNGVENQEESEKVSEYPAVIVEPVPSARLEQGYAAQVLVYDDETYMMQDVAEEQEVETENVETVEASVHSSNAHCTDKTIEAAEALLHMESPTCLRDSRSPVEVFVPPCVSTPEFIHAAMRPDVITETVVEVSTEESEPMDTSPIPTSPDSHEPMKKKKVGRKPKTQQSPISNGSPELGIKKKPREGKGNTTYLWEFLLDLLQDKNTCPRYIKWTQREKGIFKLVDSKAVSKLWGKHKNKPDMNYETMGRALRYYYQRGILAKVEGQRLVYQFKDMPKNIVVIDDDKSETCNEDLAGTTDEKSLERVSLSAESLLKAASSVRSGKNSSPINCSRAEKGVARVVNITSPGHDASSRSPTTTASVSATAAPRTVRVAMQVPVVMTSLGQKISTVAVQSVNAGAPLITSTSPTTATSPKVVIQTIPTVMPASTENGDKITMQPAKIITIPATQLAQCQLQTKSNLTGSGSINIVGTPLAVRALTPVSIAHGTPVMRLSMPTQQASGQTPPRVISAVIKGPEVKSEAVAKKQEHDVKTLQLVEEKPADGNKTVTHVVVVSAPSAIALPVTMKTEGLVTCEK
Put plainly: DAPPL (digital affinity profiling via proximity ligation, sequencing). Particulars: 10 mM Tris-HCl pH 7.5, 50 mM NaCl, 1 mM DTT, 4% glycerol, room temperature, 30 min; GST-TFs on glutathione beads, 16-mer random dsDNA library, 0.1% …; high values mean tight binding; double strand, one strand shown; scale: fold enrichment (6-mer frequency, TF over GST control).
TTCCGT registered a binding signal of 2.55. Take CGTACT: the binding signal stood at 1.21. Under AACTGC stands 1.37. Take AAGTAA: the binding signal was determined as 1.42. Under TTCTGC stands 1.38; under ATAGAA, 1.09; under AAATTA, 1.31. Sequence AATAAT came in with a binding signal of 1.33. Under TCTTGA stands 1.14; under TTCAAA, 1.23; under TACATG, 1.14.

Take AAATGG: the binding signal amounted to 1.54. Take TGGCAA: the binding signal came out at 1.17. The sequence CTGGAC displayed a binding signal of 1.07.

TCTGCC returned a binding signal of 1.28. In turn, ATGTAT gave a binding signal of 1.3. Under ATACAG stands 1.2. In the case of TCTAAG, the binding signal stood at 1.14. Under AATCGC stands 1.05. Under ATACAA stands 1.09; under GTGCTT, 1.28. As to CGCTCT, the binding signal came to 1.25. Under GTACTT stands 2.21; under TCTTCA, 1.14. The sequence TGCGCT gave a binding signal of 1.22. With AACACA, the binding signal amounted to 1.33. Under GACCTC stands 1.3; under GAAATA, 1.79; under AAAAAA, 1.34. CTGCCA showed a binding signal of 1.08. The sequence TGGCTT displayed a binding signal of 1.22. Under TTCCTC stands 2.45; under CTGTTT, 1.43. Under CGTCTC stands 1.41; under ATTAAT, 1.27; under TTGTCC, 1.39. Under CATCTA stands 1.08; under CGATAT, 1.1; under TTTAGG, 1.02.
